PubChem BioAssay AID1259308, NCATS, 2017

- Screen: 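Candidate targets for better recombinant protein yield in mammalian cells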 (primary screen)
- Cell system: human HEK293 embryonic kidney cells stably expressing firefly luciferase (HEK-CMV-Luc2-Hygro)
- Reagent: single siRNA against human genes, 0.8 pmol siRNA per well
- Time to read-out: 72 h
- Detection: 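Luciferase light (ONE-Glo) measured on one replicate plate set and viability (CellTiter-Glo) on the other, scaled to a negative control siRNA, with robust z-scores and luciferase per cell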
- Direction: total luciferase, z-score and total luciferase, % of control: higher = more reporter protein produced; luciferase per cell, z-score: higher = more reporter output per viable cell; viable cells, % of control: higher = more viable cells
- Hit rule: 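Active when the median/MAD z-score for overall luciferase is greater than 3; a gene was taken forward for validation with new siRNAs if at least two of its three siRNAs passed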
- Meaning of the calls: active = raised luciferase; inactive = no rise
The whole screen tested about 59,000 reagents; below is a part drawn at random. Of all reagents, about 1,510 (2.6%) were called active. 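Calls use total luciferase alone and ignore viability, so some active siRNAs may act by altering cell number.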 A number with no mark means an inactive call. Reagents against one gene are numbered here.

total luciferase, z-score | total luciferase, % of control | luciferase per cell, z-score | viable cells, % of control | target gene | siRNA no.
3.12 (active) | 144 | 1.69 | 103 | EPCAM (GeneID 4072) | 1
-0.69 | 68.2 | -0.217 | 80.6 | EPCAM (GeneID 4072) | 2
-0.393 | 74.1 | -0.305 | 89.7 | EPCAM (GeneID 4072) | 3
-0.164 | 78.6 | 0.922 | 68.9 | ZSCAN26 (GeneID 7741) | 1
-1.97 | 42.7 | -2.17 | 84.3 | ZSCAN26 (GeneID 7741) | 2
3.29 (active) | 147 | 2.45 | 86.4 | ZSCAN26 (GeneID 7741) | 3
-1.24 | 57.2 | -0.299 | 69.2 | GH1 (GeneID 2688) | 1
-0.322 | 75.5 | -0.066 | 85.8 | GH1 (GeneID 2688) | 2
3.62 (active) | 154 | 2.08 | 99.5 | GH1 (GeneID 2688) | 3
-0.349 | 74.9 | 0.00237 | 83.7 | TSTD2 (GeneID 158427) | 1
1.58 | 113 | 1.5 | 85.3 | TSTD2 (GeneID 158427) | 2
-1.44 | 53.3 | -1.04 | 78.4 | TSTD2 (GeneID 158427) | 3
0.393 | 89.7 | -0.0716 | 102 | UCP2 (GeneID 7351) | 1
0.0246 | 82.4 | -0.615 | 108 | UCP2 (GeneID 7351) | 2
0.406 | 90 | -0.135 | 104 | UCP2 (GeneID 7351) | 3
-0.0189 | 81.5 | -0.0519 | 92.3 | GPAT2 (GeneID 150763) | 1
0.184 | 85.5 | -0.0685 | 97.3 | GPAT2 (GeneID 150763) | 2
0.389 | 89.6 | -0.115 | 103 | GPAT2 (GeneID 150763) | 3
0.406 | 90 | -0.298 | 109 | ITGB1BP1 (GeneID 9270) | 1
-1.58 | 50.4 | -1.73 | 89 | ITGB1BP1 (GeneID 9270) | 2
-0.416 | 73.6 | 0.0423 | 81.3 | ITGB1BP1 (GeneID 9270) | 3
-1.13 | 59.3 | -1.27 | 92.5 | PEX10 (GeneID 5192) | 1
-0.432 | 73.3 | -0.104 | 84.2 | PEX10 (GeneID 5192) | 2
0.0368 | 82.6 | 1.19 | 67.5 | PEX10 (GeneID 5192) | 3
-0.613 | 69.7 | -0.813 | 96.5 | FCGBP (GeneID 8857) | 1
3.52 (active) | 152 | 3.15 | 74.1 | FCGBP (GeneID 8857) | 2
0.369 | 89.2 | -0.573 | 116 | FCGBP (GeneID 8857) | 3
-0.2 | 77.9 | -0.173 | 91.1 | ARPC3 (GeneID 10094) | 1
0.0193 | 82.3 | -0.673 | 110 | ARPC3 (GeneID 10094) | 2
-0.218 | 77.5 | 0.218 | 81.8 | ARPC3 (GeneID 10094) | 3
-0.172 | 78.5 | -0.549 | 101 | RPL13P12 (GeneID 388344) | 1
0.813 | 98 | 0.745 | 90.1 | RPL13P12 (GeneID 388344) | 2
-1.36 | 54.8 | -1.39 | 88.2 | RPL13P12 (GeneID 388344) | 3
-0.349 | 75 | -0.637 | 99.1 | NADK2 (GeneID 133686) | 1
-0.0595 | 80.7 | -0.0848 | 92.2 | NADK2 (GeneID 133686) | 2
-1.41 | 53.9 | -1.83 | 97.5 | NADK2 (GeneID 133686) | 3
-1.09 | 60.3 | -0.316 | 73.2 | TCF25 (GeneID 22980) | 1
-0.812 | 65.7 | -0.959 | 94.6 | TCF25 (GeneID 22980) | 2
-1.51 | 51.9 | -1.84 | 94.3 | TCF25 (GeneID 22980) | 3

4 entries already listed, arranged by “luciferase per cell, z-score”, low to high.
total luciferase, z-score | total luciferase, % of control | luciferase per cell, z-score | viable cells, % of control | target gene | siRNA no.
-1.24 | 57.2 | -0.299 | 69.2 | GH1 (GeneID 2688) | 1
-0.322 | 75.5 | -0.066 | 85.8 | GH1 (GeneID 2688) | 2
-0.349 | 74.9 | 0.00237 | 83.7 | TSTD2 (GeneID 158427) | 1
3.62 (active) | 154 | 2.08 | 99.5 | GH1 (GeneID 2688) | 3
